Laboratory results from paper PMC9191875.
These are yes or no findings as the source states them, for the method shown. Binding seen in cells or lysates may run through a third protein. Some binding calls cover weakened binding; strength is not graded here.

Chains of the proteins cited; added tags and fusions are not shown.
UniProt Q78YZ6: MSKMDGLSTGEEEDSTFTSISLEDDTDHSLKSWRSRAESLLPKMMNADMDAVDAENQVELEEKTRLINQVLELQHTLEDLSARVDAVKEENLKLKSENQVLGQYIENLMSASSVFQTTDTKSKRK

T1: fasciculation and elongation protein zeta-1 (FEZ1) (mouse (endogenous in HT22)) (UniProt Q8K0X8)
T1 sequence: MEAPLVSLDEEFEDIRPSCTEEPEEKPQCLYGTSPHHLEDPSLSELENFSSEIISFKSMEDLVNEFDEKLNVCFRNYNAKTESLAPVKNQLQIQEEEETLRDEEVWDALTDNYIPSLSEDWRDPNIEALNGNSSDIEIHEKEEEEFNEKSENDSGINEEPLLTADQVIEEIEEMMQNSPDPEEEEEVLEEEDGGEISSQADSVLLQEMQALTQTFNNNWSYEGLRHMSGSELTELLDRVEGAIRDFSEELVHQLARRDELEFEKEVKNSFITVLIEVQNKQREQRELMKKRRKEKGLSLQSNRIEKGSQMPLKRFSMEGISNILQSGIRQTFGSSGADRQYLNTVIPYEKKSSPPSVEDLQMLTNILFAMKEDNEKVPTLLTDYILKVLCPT

B1: unc-51 like autophagy activating kinase 1 (ULK1) (protein, UniProt O70405 1-1051)
chain: MEPGRGGVETVGKFEFSRKDLIGHGAFAVVFKGRHREKHDLEVAVKCINKKNLAKSQTLLGKEIKILKELKHENIVALYDFQEMANSVYLVMEYCNGGDLADYLHTMRTLSEDTVRLFLQQIAGAMRLLHSKGIIHRDLKPQNILLSNPGGRRANPSNIRVKIADFGFARYLQSNMMAATLCGSPMYMAPEVIMSQHYDGKADLWSIGTIVYQCLTGKAPFQASSPQDLRLFYEKNKTLVPAIPRETSAPLRQLLLALLQRNHKDRMDFDEFFHHPFLDASTPIKKSPPVPVPSYPSSGSGSSSSSSSASHLASPPSLGEMPQLQKTLTSPADAAGFLQGSRDSGGSSKDSCDTDDFVMVPAQFPGDLVAEAASAKPPPDSLLCSGSSLVASAGLESHGRTPSPSPTCSSSPSPSGRPGPFSSNRYGASVPIPVPTQVHNYQRIEQNLQSPTQQQTARSSAIRRSGSTTPLGFGRASPSPPSHTDGAMLARKLSLGGGRPYTPSPQVGTIPERPSWSRVPSPQGADVRVGRSPRPGSSVPEHSPRTTGLGCRLHSAPNLSDFHVVRPKLPKPPTDPLGATFSPPQTSAPQPCPGLQSCRPLRGSPKLPDFLQRSPLPPILGSPTKAGPSFDFPKTPSSQNLLTLLARQGVVMTPPRNRTLPDLSEASPFHGQQLGSGLRPAEDTRGPFGRSFSTSRITDLLLKAAFGTQASDSGSTDSLQEKPMEIAPSAGFGGTLHPGARGGGASSPAPVVFTVGSPPSGATPPQSTRTRMFSVGSSSSLGSTGSSSARHLVPGACGEAPELSAPGHCCSLADPLAANLEGAVTFEAPDLPEETLMEQEHTETLHSLRFTLAFAQQVLEIAALKGSASEAAGGPEYQLQESVVADQISQLSREWGFAEQLVLYLKVAELLSSGLQTAIDQIRAGKLCLSSTVKQVVRRLNELYKASVVSCQGLSLRLQRFFLDKQRLLDGIHGVTAERLILSHAVQMVQSAALDEMFQHREGCVPRYHKALLLLEGLQHTLTDQADIENIAKCKLCIERRLSALLSGVYA

Target: T1, fasciculation and elongation protein zeta-1 (FEZ1) (mouse (endogenous in HT22))
Test: co-IP; FEZ1 IP antibody added to RIPA lysate of cultured cells, overnight at 4°C; captured on Protein G/A agarose beads, washed 3 times with RIPA buffer; Western blot detection; IgG as negative control

| Molecule | binding |
| --- | --- |
| short coiled-coil protein (SCOC) (from UniProt Q78YZ6 1-125) | binds |
| B1 | binds |
